These are yes or no findings as the source states them, for the method shown. In cells and extracts the contact can be indirect. These calls come from enrichment with a bait or labelling near it, and not all partners need be listed. For some of these results: A no says only that the protein was not detected with the bait.
Legend:
Assay in all cases: affinity purification with mass spectrometry
[1] = molecular target: flag-tagged RPC3 (POLR3C) (UniProt Q9BUI4)
[2] = molecular target: flag-tagged RPC7α (POLR3G) (UniProt O15318)
[3] = molecular target: flag-tagged RPC7β (POLR3GL) (UniProt Q9BT43)

The chains behind the UniProt entries cited, without tags or fusion partners.
UniProt Q9BUI4: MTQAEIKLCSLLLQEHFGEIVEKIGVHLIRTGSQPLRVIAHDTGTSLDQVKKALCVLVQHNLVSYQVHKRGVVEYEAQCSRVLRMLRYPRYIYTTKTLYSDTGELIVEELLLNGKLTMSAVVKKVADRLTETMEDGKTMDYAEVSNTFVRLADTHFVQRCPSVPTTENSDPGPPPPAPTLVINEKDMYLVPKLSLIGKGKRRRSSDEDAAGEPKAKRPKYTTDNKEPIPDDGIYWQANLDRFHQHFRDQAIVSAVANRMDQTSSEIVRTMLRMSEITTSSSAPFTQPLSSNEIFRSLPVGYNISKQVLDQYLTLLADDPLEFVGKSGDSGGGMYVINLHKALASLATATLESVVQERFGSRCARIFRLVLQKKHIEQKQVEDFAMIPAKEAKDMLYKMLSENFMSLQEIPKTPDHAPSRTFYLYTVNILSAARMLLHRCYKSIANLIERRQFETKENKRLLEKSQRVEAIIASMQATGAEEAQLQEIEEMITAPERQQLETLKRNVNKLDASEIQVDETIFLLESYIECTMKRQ
UniProt O15318: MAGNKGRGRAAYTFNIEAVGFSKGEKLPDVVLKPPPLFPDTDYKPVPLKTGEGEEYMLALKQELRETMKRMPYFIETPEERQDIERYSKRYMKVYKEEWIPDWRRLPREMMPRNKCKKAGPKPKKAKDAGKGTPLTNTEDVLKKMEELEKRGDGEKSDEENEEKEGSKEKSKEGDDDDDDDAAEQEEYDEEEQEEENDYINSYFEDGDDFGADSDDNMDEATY
UniProt Q9BT43: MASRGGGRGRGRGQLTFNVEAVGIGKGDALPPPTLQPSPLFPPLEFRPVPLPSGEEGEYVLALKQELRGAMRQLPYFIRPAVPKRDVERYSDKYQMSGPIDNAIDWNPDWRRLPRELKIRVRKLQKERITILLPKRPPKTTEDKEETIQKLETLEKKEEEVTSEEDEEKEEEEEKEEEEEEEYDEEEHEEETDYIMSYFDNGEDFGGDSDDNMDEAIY
UniProt P37198: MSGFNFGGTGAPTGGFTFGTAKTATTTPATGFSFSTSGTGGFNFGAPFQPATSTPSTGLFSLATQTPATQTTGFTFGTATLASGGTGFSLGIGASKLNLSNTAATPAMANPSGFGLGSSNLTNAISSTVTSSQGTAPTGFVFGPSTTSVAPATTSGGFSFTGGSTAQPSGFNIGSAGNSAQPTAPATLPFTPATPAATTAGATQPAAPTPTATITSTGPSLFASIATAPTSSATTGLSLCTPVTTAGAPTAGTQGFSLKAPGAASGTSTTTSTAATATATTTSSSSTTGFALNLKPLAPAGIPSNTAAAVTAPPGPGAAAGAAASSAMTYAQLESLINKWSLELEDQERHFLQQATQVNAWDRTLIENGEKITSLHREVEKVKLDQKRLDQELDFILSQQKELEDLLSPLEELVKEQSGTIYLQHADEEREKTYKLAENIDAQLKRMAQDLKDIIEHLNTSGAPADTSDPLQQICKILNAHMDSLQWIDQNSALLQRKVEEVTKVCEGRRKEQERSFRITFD
UniProt P12270: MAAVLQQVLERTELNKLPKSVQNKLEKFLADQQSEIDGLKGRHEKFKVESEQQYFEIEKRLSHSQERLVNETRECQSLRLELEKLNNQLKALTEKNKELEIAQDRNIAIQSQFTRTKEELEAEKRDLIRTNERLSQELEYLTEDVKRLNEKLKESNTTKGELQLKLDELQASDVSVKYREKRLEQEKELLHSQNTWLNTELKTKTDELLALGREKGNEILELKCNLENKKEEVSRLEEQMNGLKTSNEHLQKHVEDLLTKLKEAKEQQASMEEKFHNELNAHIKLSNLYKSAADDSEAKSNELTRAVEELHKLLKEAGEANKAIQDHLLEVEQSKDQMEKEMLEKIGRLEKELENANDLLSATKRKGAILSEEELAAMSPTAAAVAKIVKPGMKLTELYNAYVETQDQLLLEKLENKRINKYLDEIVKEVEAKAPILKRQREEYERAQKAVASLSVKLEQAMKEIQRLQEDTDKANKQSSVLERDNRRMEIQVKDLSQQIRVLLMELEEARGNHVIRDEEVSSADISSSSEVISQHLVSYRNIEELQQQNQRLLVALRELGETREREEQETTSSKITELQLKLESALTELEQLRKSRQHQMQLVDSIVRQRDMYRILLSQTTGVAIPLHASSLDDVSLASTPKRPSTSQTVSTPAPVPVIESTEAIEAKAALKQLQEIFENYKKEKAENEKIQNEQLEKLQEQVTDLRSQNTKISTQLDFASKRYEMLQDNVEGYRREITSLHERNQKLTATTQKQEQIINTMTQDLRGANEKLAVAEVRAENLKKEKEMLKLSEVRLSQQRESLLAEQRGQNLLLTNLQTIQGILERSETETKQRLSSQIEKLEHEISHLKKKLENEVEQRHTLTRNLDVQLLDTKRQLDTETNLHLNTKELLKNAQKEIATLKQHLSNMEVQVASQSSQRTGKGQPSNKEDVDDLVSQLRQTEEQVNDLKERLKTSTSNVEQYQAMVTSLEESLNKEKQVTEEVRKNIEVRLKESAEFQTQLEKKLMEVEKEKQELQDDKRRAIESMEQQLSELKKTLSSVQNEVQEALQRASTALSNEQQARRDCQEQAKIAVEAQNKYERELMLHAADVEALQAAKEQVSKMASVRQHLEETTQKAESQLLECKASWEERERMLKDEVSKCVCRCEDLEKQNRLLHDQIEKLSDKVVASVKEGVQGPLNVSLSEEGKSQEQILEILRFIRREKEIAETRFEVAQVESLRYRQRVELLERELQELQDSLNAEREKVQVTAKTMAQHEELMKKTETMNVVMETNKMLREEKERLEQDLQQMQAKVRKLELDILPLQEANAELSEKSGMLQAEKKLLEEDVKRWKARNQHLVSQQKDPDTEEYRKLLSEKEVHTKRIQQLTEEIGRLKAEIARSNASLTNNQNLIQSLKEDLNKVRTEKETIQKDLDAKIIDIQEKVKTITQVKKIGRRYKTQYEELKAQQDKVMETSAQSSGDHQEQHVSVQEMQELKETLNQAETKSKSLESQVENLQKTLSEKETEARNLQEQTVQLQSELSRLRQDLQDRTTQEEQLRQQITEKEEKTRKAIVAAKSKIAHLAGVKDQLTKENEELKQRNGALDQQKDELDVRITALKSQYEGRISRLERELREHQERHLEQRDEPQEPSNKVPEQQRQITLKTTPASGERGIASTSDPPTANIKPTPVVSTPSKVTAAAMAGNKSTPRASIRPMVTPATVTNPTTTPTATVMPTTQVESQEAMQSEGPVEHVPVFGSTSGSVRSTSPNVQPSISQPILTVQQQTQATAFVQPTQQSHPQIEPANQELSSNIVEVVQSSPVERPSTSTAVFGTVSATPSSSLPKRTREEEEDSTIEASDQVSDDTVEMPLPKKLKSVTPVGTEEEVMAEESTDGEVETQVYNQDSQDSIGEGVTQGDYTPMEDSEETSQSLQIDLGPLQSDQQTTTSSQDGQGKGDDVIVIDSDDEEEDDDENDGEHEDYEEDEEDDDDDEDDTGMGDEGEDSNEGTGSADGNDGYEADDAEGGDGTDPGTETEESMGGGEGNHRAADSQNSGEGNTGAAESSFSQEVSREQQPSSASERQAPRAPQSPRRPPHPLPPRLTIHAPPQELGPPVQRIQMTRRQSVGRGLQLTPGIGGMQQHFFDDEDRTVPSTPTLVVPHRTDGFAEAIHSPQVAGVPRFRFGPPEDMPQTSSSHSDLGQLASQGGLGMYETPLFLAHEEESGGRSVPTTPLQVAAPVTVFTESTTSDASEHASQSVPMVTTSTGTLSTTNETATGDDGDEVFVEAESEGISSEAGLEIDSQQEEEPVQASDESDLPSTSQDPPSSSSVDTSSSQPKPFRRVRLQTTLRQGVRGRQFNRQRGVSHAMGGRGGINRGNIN

Molecule	binding [1]	binding [2]	binding [3]
NUP62 (from UniProt P37198 1-522)	binds	binds	binds
RPC7β (POLR3GL), endogenous (from UniProt Q9BT43 1-218)	binds	no binding	
NUP93 (protein, UniProt Q8N1F7 1-819) MDTEGFGELLQQAEQLAAETEGISELPHVERNLQEIQQAGERLRSRTLTRTSQETADVKASVLLGSRGLDISHISQRLESLSAATTFEPLEPVKDTDIQGFLKNEKDNALLSAIEESRKRTFGMAEEYHRESMLVEWEQVKQRILHTLLASGEDALDFTQESEPSYISDVGPPGRSSLDNIEMAYARQIYIYNEKIVNGHLQPNLVDLCASVAELDDKSISDMWTMVKQMTDVLLTPATDALKNRSSVEVRMEFVRQALAYLEQSYKNYTLVTVFGNLHQAQLGGVPGTYQLVRSFLNIKLPAPLPGLQDGEVEGHPVWALIYYCMRCGDLLAASQVVNRAQHQLGEFKTWFQEYMNSKDRRLSPATENKLRLHYRRALRNNTDPYKRAVYCIIGRCDVTDNQSEVADKTEDYLWLKLNQVCFDDDGTSSPQDRLTLSQFQKQLLEDYGESHFTVNQQPFLYFQVLFLTAQFEAAVAFLFRMERLRCHAVHVALVLFELKLLLKSSGQSAQLLSHEPGDPPCLRRLNFVRLLMLYTRKFESTDPREALQYFYFLRDEKDSQGENMFLRCVSELVIESREFDMILGKLENDGSRKPGVIDKFTSDTKPIINKVASVAENKGLFEEAAKLYDLAKNADKVLELMNKLLSPVVPQISAPQSNKERLKNMALSIAERYRAQGISANKFVDSTFYLLLDLITFFDEYHSGHIDRAFDIIERLKLVPLNQESVEERVAAFRNFSDEIRHNLSEVLLATMNILFTQFKRLKGTSPSSSSRPQRVIEDRDSQLRSQARTLITFAGMIPYRTSGDTNARLVQMEVLMN	binds	binds	binds

Continued, values first:

binding [1]	binding [2]	binding [3]	Molecule
binds		no binding	RPC7α (POLR3G), endogenous (from UniProt O15318 1-223)
binds	binds	binds	TPR - a nuclear basket protein (from UniProt P12270 1-2363)

From paper doi:10.64898/2025.12.12.694012
